Results from patent US9861616B2, “Methods for treating respiratory diseases and formulations therefor” (priority 2013, dated 2018).
At least one compound was matched to its structure with a doubt left. Some results were stated once for a whole list of compounds, not compound by compound.

Tests used:
[1] = test system: MRSA strains from CF patients; experiment: Microdilution MICs against 40 MRSA strains from CF patients; type: cell-based, S. aureus
Description: Two strains each of mucoid P. aeruginosa (both pyocyanin positive) and […] MRSA (only one strain with gold colonies) isolated from patients at a CF clinic were tested. Additionally, 2 B. cepacia strains were acquired, from Hershey Medical Center. All strains were identified by standard methods. Only one strain per patient was tested. MLVA was done on all strains to examine clonality, and confirmed that examination is not taking place on only one or a few clones. Strains will be stored in skim milk at −70° C. until use.
Original MICs of each strain to CEM-101 and other comparators were tested by CLSI microdilution methodology. Trays were obtained from Trek, Inc., Cleveland, Ohio. Time-kill macrobroth MIC dilution by CLSI was performed for all synergy testing.

[2] = Rodent ADME studies using radiolabeled CEM-101; type: in vivo; conditions: oral 100 mg/kg, male and female animals
Description: This relationship was confirmed in rodent ADME studies using radiolabeled CEM-101. […] After IV dosing at 20 mg/kg, the data was more variable and lung/plasma ratios of 17.6 for males and 6.2 for females were observed.

| SMILES | MIC Range [1] | lung tissue to plasma radioactivity ratio [2] |
| --- | --- | --- |
| CN[C@H](CC(C)C)C(=O)N[C@H]1C(=O)N[C@@H](CC(N)=O)C(=O)N[C@H]2C(=O)N[C@H]3C(=O)N[C@H](C(=O)N[C@H](C(=O)O)c4cc(O)cc(O)c4-c4cc3ccc4O)[C@H](O)c3ccc(c(Cl)c3)Oc3cc2cc(c3O[C@@H]2O[C@H](CO)[C@@H](O)[C@H](O)[C@H]2O[C@H]2C[C@](C)(N)[C@H](O)[C@H](C)O2)Oc2ccc(cc2Cl)[C@H]1O [Vancomycin] | 0.25 to 1 µg/mL | – |
| CC[C@H]1OC(=O)[C@@](C)(F)C(=O)[C@H](C)[C@@H](O[C@@H]2O[C@H](C)C[C@H](N(C)C)[C@H]2O)[C@](C)(OC)C[C@@H](C)C(=O)[C@H](C)[C@H]2N(CCCCn3cc(-c4cccc(N)c4)nn3)C(=O)O[C@]12C [CEM-101, solithromycin] | 0.06-≧16 | about 13:1 |
